From PubChem BioAssay AID2685 (National Center for Advancing Translational Sciences (NCATS), 2010)
The other results are listed elsewhere or left out. Shown are side measurements of this screen, not its main read-out; they come without a call. The list favours compounds with an active or inconclusive main result. Words in brackets tell the shape of the fitted curve; partial curves, single points and poor fits give uncertain potencies.

Assay: qHTS Assay for Lipid Storage Modulators in Drosophila S3 Cells;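 on cell number change: cells counted by Cell Tracker Red CMTPX staining in the red channel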
Settings: BODIPY lipid droplet fluorescence, 18-24 h; for cell number change: measured here: cell count max response, cells fed with added oleic acid
Outline: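 Drosophila S3 cells loaded with oleic acid (400 uM, as added) and compounds at several concentrations; lipid droplets imaged by 488-nm laser-scanning cytometry, 500–530 nm intensity and object ratio to cell channel. Percent activity normalized to 20 uM Triacsin C.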

[1] = measured here: lipid fluorescence (Fed channel) AC50, cells fed with added oleic acid
[2] = measured here: cell number channel AC50, cells fed with added oleic acid

Structure (SMILES) | cell number change [%] | AC50 [1] | AC50 [2]
COc1ccc(S(=O)(=O)N2CCCCC2)cc1NC(=O)Cc1ccsc1 | -7.23 |  | 
COc1ccc(S(=O)(=O)N2CCOC2CNC(=O)C(=O)NCCc2ccccc2OC)cc1C (configuration not stated) | 11.2 | 0.58 µM [rising, single point] | 
COCc1cc(N2CCCC2)nc(-c2ccccc2)n1 |  | 0.517 µM [rising, single point] | 
CCN(Cc1nc2ccccc2c(=O)[nH]1)C(=O)c1cccc(S(=O)(=O)N2CCc3ccccc32)c1 | 44.4 |  | 10.3 µM [rising, partial curve, poor fit]
COc1ccc(CNS(=O)(=O)c2cc(-c3cc(C)no3)ccc2OC)cc1OC | -11.2 | 4.11 µM [falling, single point] | 
C/C(Cc1ccccc1)=N\NC(=O)c1ccccn1 | 20 |  | 
CCOC(=O)c1nn(-c2ccc(F)cc2)c(=O)cc1OCC(=O)Nc1ccc(OCC)cc1 | -99.7 | 16.4 µM [rising, partial curve] | 32.6 µM [falling, partial curve]
C=CCc1cccc2cc(C(=O)NCc3cccnc3)c(=O)oc12 | 263 | 18.4 µM [rising, partial curve] | 16.4 µM [rising, partial curve]
CCC(C)c1ccccc1NC(=O)COC(=O)C1=COCCO1 (configuration not stated) | -63 | 0.517 µM [rising, partial curve] | 29.1 µM [falling, single point]
CCOC(=O)CNC(=O)/C=C/c1c(Cl)cccc1Cl | -13 | 9.2 µM [rising, single point] | 
O=C(NCCN1CCCCC1)Nc1ccccc1 | -25.7 |  | 4.11 µM [falling, full curve, poor fit]
O=C1Nc2ccc(NS(=O)(=O)c3cccs3)c3cccc1c23 | -24.7 |  | 
CC(C)Cc1nnc(NC(=O)CSc2ccccn2)s1 | 51.6 |  | 29.1 µM [rising, single point]
Cc1ccc(S(=O)(=O)N(C)C)cc1NC(=O)COC(=O)CCC(=O)c1cccs1 | 18.5 | 0.58 µM [rising, full curve] | 
O=C(O)CNS(=O)(=O)c1ccc2[nH]c(=O)c(=O)[nH]c2c1 | -23.4 | 0.164 µM [falling, full curve, poor fit] | 0.0731 µM [falling, full curve, poor fit]
Cc1cc(NC(=O)CSc2nc3c(c(=O)n2Cc2ccccc2)SC(C)C3)no1 (configuration not stated) | 1.59 | 0.291 µM [rising, partial curve] | 
O=C(c1cc(-c2ccco2)nc2ccccc12)N(Cc1nnc(-c2ccc(Cl)cc2)o1)C1CC1 | -21.6 | 0.00411 µM [falling, full curve, poor fit] | 
O=C(NC(=S)NNC(=O)c1ccco1)c1ccc(F)cc1 |  | 29.1 µM [falling, single point] | 
O=C(NCCN1C(=O)S/C(=C\c2cccnc2)C1=O)c1cccc(OC(F)F)c1 | 6.16 |  | 
O=c1c(-c2ccccc2)c(O)cc(-c2ccncc2)n1-c1ccc(Cl)cc1 | 1.32 | 6.51 µM [falling, single point] | 6.51 µM [falling, single point]
C/C(=N\NC(=O)c1cc(-c2ccc(O)cc2)nc2ccccc12)c1cccnc1 |  |  | 2.91 µM [falling, single point]

An excerpt from above in order of number of heavy atoms, low to high:
Structure (SMILES) | cell number change [%] | AC50 [1] | AC50 [2]
O=C(NCCN1CCCCC1)Nc1ccccc1 | -25.7 |  | 4.11 µM [falling, full curve, poor fit]
CCOC(=O)CNC(=O)/C=C/c1c(Cl)cccc1Cl | -13 | 9.2 µM [rising, single point] | 
CC(C)Cc1nnc(NC(=O)CSc2ccccn2)s1 | 51.6 |  | 29.1 µM [rising, single point]
O=C(NC(=S)NNC(=O)c1ccco1)c1ccc(F)cc1 |  | 29.1 µM [falling, single point] | 
O=C1Nc2ccc(NS(=O)(=O)c3cccs3)c3cccc1c23 | -24.7 |  | 
CCC(C)c1ccccc1NC(=O)COC(=O)C1=COCCO1 (configuration not stated) | -63 | 0.517 µM [rising, partial curve] | 29.1 µM [falling, single point]
C=CCc1cccc2cc(C(=O)NCc3cccnc3)c(=O)oc12 | 263 | 18.4 µM [rising, partial curve] | 16.4 µM [rising, partial curve]
COc1ccc(S(=O)(=O)N2CCCCC2)cc1NC(=O)Cc1ccsc1 | -7.23 |  | 
O=c1c(-c2ccccc2)c(O)cc(-c2ccncc2)n1-c1ccc(Cl)cc1 | 1.32 | 6.51 µM [falling, single point] | 6.51 µM [falling, single point]
COc1ccc(CNS(=O)(=O)c2cc(-c3cc(C)no3)ccc2OC)cc1OC | -11.2 | 4.11 µM [falling, single point] | 
CCOC(=O)c1nn(-c2ccc(F)cc2)c(=O)cc1OCC(=O)Nc1ccc(OCC)cc1 | -99.7 | 16.4 µM [rising, partial curve] | 32.6 µM [falling, partial curve]
COc1ccc(S(=O)(=O)N2CCOC2CNC(=O)C(=O)NCCc2ccccc2OC)cc1C (configuration not stated) | 11.2 | 0.58 µM [rising, single point] | 
CCN(Cc1nc2ccccc2c(=O)[nH]1)C(=O)c1cccc(S(=O)(=O)N2CCc3ccccc32)c1 | 44.4 |  | 10.3 µM [rising, partial curve, poor fit]

(listing goes on)

Structure (SMILES) | cell number change [%] | AC50 [1] | AC50 [2]
Cc1nnc(SCC(=O)NCCN2C(=O)CSC2=O)s1 | -99.2 | 18.4 µM [falling, single point] | 29.1 µM [falling, single point]
Cc1ccc(NC(=S)NNC(=O)c2c(Cl)c(C)nn2C)cc1 | 48.8 |  | 3.26 µM [rising, full curve]
Cc1ccc2nc(SCC(=O)c3cc(C)n(C)c3C)[nH]c2c1 | -45.5 | 13 µM [falling, partial curve] | 16.4 µM [falling, partial curve]
COC(=O)C(NC(=O)c1ccccc1)(Nc1nc(C)cs1)C(F)(F)F (configuration not stated) | 0.904 | 6.51 µM [falling, single point] | 
O=S(=O)(c1cccc(Br)c1)N1CCN(c2ccnc3cc(Cl)ccc23)CC1 |  | 1.3 µM [rising, full curve, poor fit] | 
CCN(CC)S(=O)(=O)c1cccc(-c2nnc(SCC(=O)NCCC3=CCCCC3)n2N)c1 | -12.9 | 16.4 µM [falling, partial curve, poor fit] | 
Cc1ccc2[nH]c(=O)c(CN(c3cccc(C)c3C)S(=O)(=O)c3ccccc3)cc2c1 |  | 0.00517 µM [falling, full curve, poor fit] | 
Cc1ccc(S(=O)(=O)N2CCOCC2)cc1NC(=O)COC(=O)CNC(=O)c1ccc(Cl)cc1Cl | 2.55 | 29.1 µM [falling, single point] | 
CCc1nnc(NS(=O)(=O)c2ccc(Nc3ccc([N+](=O)[O-])c4nonc34)cc2)s1 | 10.2 |  | 0.0651 µM [rising, full curve]
CN1CCN(CC(=O)Nc2sc3c(c2C(=O)Nc2ccccc2)CCCC3)CC1 | 49.7 | 29.1 µM [rising, single point] | 29.1 µM [rising, single point]
CC(C)Cc1nc2ccccc2n1CCc1ccccc1 | 12.3 | 4.11 µM [rising, partial curve, poor fit] | 
CCn1nnnc1-c1ccc(OC)c(S(=O)(=O)Nc2ccc(C)c(C)c2)c1 | 2.75 |  | 
O=C(c1ccc(S(=O)(=O)N2CCCC2)cc1)N1CCN(c2ccccc2)CC1 | 5.13 |  | 
Cc1ccc(S(=O)(=O)CCC(=O)OCC(=O)N(C)C2CCS(=O)(=O)C2)cc1 (configuration not stated) | -26.5 |  | 
O=C(CCC(=O)Nc1ccc(Cl)cc1Cl)N/N=C/c1ccc([N+](=O)[O-])o1 | -8.59 | 1.03 µM [rising, full curve] | 0.731 µM [rising, full curve]
CCOC(=O)C1=C(C)NC(=O)NC1C (configuration not stated) |  | 29.1 µM [falling, single point] | 
CCCCn1c(N)c(N(CCOC)C(=O)c2c(CC)noc2C)c(=O)[nH]c1=O | -39.9 | 4.11 µM [falling, full curve] | 4.11 µM [falling, full curve]
O=C(Cc1ccccc1)NCC(=O)OCC(=O)c1ccccc1Cl | 5.97 | 0.0058 µM [rising, full curve, poor fit] | 
Cc1cnc(C(=O)N2CCCC(C(=O)c3ccc(Cl)cc3C)C2)cn1 (configuration not stated) | 6.05 | 0.00461 µM [rising, full curve, poor fit] | 
COc1ccc(-c2nc(C#N)c(NCCCN(C)C)o2)cc1OC | -36.5 |  | 7.31 µM [falling, full curve, poor fit]
Cc1ccc(CCNC(=O)C2=CCN(S(=O)(=O)c3ccccc3)CC2)cc1 | 11.9 | 6.51 µM [rising, single point] | 

Structure (SMILES) | cell number change [%] | AC50 [1] | AC50 [2]
Cn1c2ccccc2c2n[nH]c(=O)nc21 | 0.213 |  | 
CCn1c(-c2ccccc2Cl)nn(CC(=O)Nc2cc(Cl)ccc2Cl)c1=S | 25.6 | 4.61 µM [rising, partial curve] | 
CC1CCCC(NC(=O)c2ccc3c(c2)N(Cc2ccccc2)C(=O)CS3=O)C1C (configuration not stated) |  | 2.91 µM [rising, single point] | 
CC(OC(=O)C1CCN(c2ccc(C(F)(F)F)cn2)CC1)C(=O)NC1CCCCC1C (configuration not stated) | 3.44 | 0.00517 µM [rising, full curve, poor fit] | 
COC(=O)CSc1nc(N)c(C#N)c(CC(C)C)c1C#N | 6.42 | 6.51 µM [rising, single point] | 
Oc1ccccc1O | 15.6 | 0.651 µM [rising, full curve, poor fit] | 
O=C(Nc1cccc(C(=O)O)c1)Nc1ccccc1Cl | -45.1 | 3.26 µM [rising, single point] | 29.1 µM [falling, single point]
O=S(=O)(/N=C(/Nc1ccc(Cl)c(S(=O)(=O)Nc2ccccc2Cl)c1)c1ccc(F)cc1)c1ccccc1 | 97.8 |  | 
c1ccc(C2NCCn3cccc32)cc1 (configuration not stated) | 48.8 |  | 16.4 µM [rising, partial curve]
Cc1cccc(-n2nnc3c(=O)n(CC(=O)Nc4cc(C)on4)cnc32)c1 | 35 |  | 5.17 µM [rising, full curve, poor fit]
O=C(Nc1nccs1)c1ccc2ccccc2c1 | -18.6 |  | 
CC(=O)c1cccc(NC(=O)COc2cc(C)on2)c1 | 4.19 | 6.51 µM [rising, single point] | 
CCn1c(=N)c(C(=O)NCc2cccnc2)cc2c(=O)n3cccc(C)c3nc21 | 30.9 | 8.2 µM [rising, partial curve, poor fit] | 5.17 µM [rising, partial curve]
O=C(Nc1ccccn1)c1ccc2nc(-c3ccccc3)c(-c3ccccc3)nc2c1 | -10.5 | 1.84 µM [falling, single point] | 
O=C(NCc1cccs1)Nc1ccc2c(c1)OCO2 |  | 0.116 µM [falling, full curve, poor fit] | 
N#CC1CC(c2ccccc2)=NN1c1ccccc1[N+](=O)[O-] (configuration not stated) | 17.3 |  | 
COC(=O)/C=C1\OC(c2ccccc2)=CC1=O |  |  | 0.00517 µM [falling, full curve, poor fit]
COc1ccc(C(=O)c2oc3ccc(OC)cc3c2NC(C)=O)cc1 | 49.8 |  | 
COc1ccc([C@H]2CC(=O)C=C(c3ccc4cc[nH]c4c3)C2)cc1 |  | 0.00461 µM [falling, full curve, poor fit] | 
